Measurements reported in PubChem BioAssay AID1159584 (Peter MacCallum Cancer Centre, 2016)

Screen: 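Knock-downs that harm CDH1-null cells more than parental MCF10A cells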 (primary screen)
Cells: human MCF10A breast epithelial cells, parental and CDH1-null
Knock-down reagent: siRNA against human genes
Read-out: 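Cell viability by CellTiter-Glo ATP luminescence, each line scaled to the mean of mock wells across plates, then CDH1-null over parental ratio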
Reading the numbers: CDH1-null / parental viability ratio: higher = CDH1-null cells survive relatively better than parental; CDH1-null viability vs mock: higher = more viable CDH1-null cells; parental viability vs mock: higher = more viable parental cells
This is an unselected part of about 18,000 reagents. The record does not give: the amount of reagent, the time to read-out.

gene symbol,CDH1-null / parental viability ratio,CDH1-null viability vs mock (fraction of mock),parental viability vs mock (fraction of mock)
CZIB (GeneID 54987),0.86,0.66,0.77
PRELP (GeneID 5549),0.97,0.62,0.64
WFDC8 (GeneID 90199),0.98,0.52,0.53
H1-7 (GeneID 341567),0.99,0.8,0.81
EIF2AK1 (GeneID 27102),1.04,0.98,0.94
INTS15 (GeneID 79034),0.82,0.86,1.05
PPP1R3B (GeneID 79660),1.06,0.37,0.35
PTPA (GeneID 5524),1.46,0.82,0.56
DUX1 (GeneID 26584),1.18,1.06,0.9
JPH3 (GeneID 57338),1.08,1.04,0.96
IL5RA (GeneID 3568),0.95,0.84,0.88
SLC26A4 (GeneID 5172),1.07,1.37,1.28
TBC1D31 (GeneID 93594),1.09,0.72,0.66
GPR15 (GeneID 2838),0.86,0.9,1.05
PRIM1 (GeneID 5557),0.88,0.64,0.73
SIGLEC8 (GeneID 27181),1.67,0.97,0.58
TYW1 (GeneID 55253),1.18,0.87,0.74
GLYR1 (GeneID 84656),1.04,0.85,0.82
GCDH (GeneID 2639),0.96,0.9,0.94
TCF12 (GeneID 6938),0.9,0.74,0.82
CSHL1 (GeneID 1444),1.03,0.72,0.7
KAT14 (GeneID 57325),1.22,0.95,0.78
BBS9 (GeneID 27241),1.12,0.92,0.82
CARD6 (GeneID 84674),0.77,0.69,0.9
HYI (GeneID 81888),0.97,1.09,1.12
PDZD4 (GeneID 57595),0.81,0.56,0.69
SNX7 (GeneID 51375),1.2,0.98,0.82
GRIN2D (GeneID 2906),1.24,0.97,0.78
VPS35L (GeneID 57020),0.86,0.64,0.74
HMGN2P46 (GeneID 283651),0.95,0.36,0.38
DNAJB1 (GeneID 3337),1.29,0.62,0.48
UBE2QL1 (GeneID 134111),1.09,0.83,0.76
OR4D10 (GeneID 390197),1.11,0.71,0.64
EPCAM (GeneID 4072),1.07,0.9,0.84
SMIM7 (GeneID 79086),0.97,0.62,0.64
CD55 (GeneID 1604),0.94,0.66,0.7
AMHR2 (GeneID 269),0.89,0.73,0.82
MRPL12 (GeneID 6182),1.13,0.88,0.78
METTL6 (GeneID 131965),1.06,1,0.94
AFF3 (GeneID 3899),1.22,1,0.82
NPHS2 (GeneID 7827),0.84,0.74,0.88
PKD1L1 (GeneID 168507),0.94,0.6,0.64
CNR1 (GeneID 1268),0.93,1,1.08
MAGEC3 (GeneID 139081),0.95,0.73,0.77
RHBDL3 (GeneID 162494),1.18,0.9,0.76
PTGER1 (GeneID 5731),1.41,1.04,0.74

Ordered by “parental viability vs mock (fraction of mock)” (low to high): some entries from above
gene symbol,CDH1-null / parental viability ratio,CDH1-null viability vs mock (fraction of mock),parental viability vs mock (fraction of mock)
SIGLEC8 (GeneID 27181),1.67,0.97,0.58
CSHL1 (GeneID 1444),1.03,0.72,0.7
TYW1 (GeneID 55253),1.18,0.87,0.74
KAT14 (GeneID 57325),1.22,0.95,0.78
GLYR1 (GeneID 84656),1.04,0.85,0.82
TCF12 (GeneID 6938),0.9,0.74,0.82
GCDH (GeneID 2639),0.96,0.9,0.94
